PubChem BioAssay AID1224829 | NIAID | 2016
Aim: 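Genes needed for LPS-driven NF-kappaB p65 nuclear entry in mouse macrophages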 (follow-up of hits). Cell system: mouse RAW264.7 G9 macrophage reporter cells. Reagent: single siRNA against mouse genes, 100 nM. Duration: 2 days of siRNA knock-down, then 40 min of LPS before fixing. Treatment: LPS (Salmonella minnesota R595) at 10 ng/ml. Read-out: 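High-content images after 40 min LPS exposure; GFP-p65 nucleus to surrounding ring signal ratio, normalised to plate median and non-targeting control wells, expressed as z-score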. Direction: p65 translocation z-score and gene median z-score, per vendor: higher = more nuclear NF-kappaB p65 after LPS. Call rule: 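An siRNA is called active when the mean z-score of its two replicates is above 2 or below -2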. Calls: active = changed p65 translocation (either direction); inactive = no clear change.
The whole screen tested about 3,800 reagents; shown is an unselected part. 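Calls cover raised and lowered translocation; gene median uses one vendor's three siRNAs; qiagen siRNAs acted more weakly than ambion siRNAs.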 A number with no mark means an inactive call. The numbers tell different reagents against one gene apart.

Neil2 (nei like 2 (E. coli)) #1, siRNA vendor or control pool ambion single siRNA — p65 translocation z-score, replicate mean: -1.81; p65 translocation z-score, replicate 1: -1.22; p65 translocation z-score, replicate 2: -2.41; gene median z-score, per vendor: -2.41
Neil2 (nei like 2 (E. coli)) #2, siRNA vendor or control pool ambion single siRNA — p65 translocation z-score, replicate mean: -4 (active); p65 translocation z-score, replicate 1: -4; gene median z-score, per vendor: -2.41
Neil2 (nei like 2 (E. coli)) #3, siRNA vendor or control pool ambion single siRNA — gene median z-score, per vendor: -2.41
Neil2 (nei like 2 (E. coli)) #4, siRNA vendor or control pool qiagen single siRNA — p65 translocation z-score, replicate mean: -0.643; p65 translocation z-score, replicate 1: -1.31; p65 translocation z-score, replicate 2: 0.0263; gene median z-score, per vendor: -0.643
Neil2 (nei like 2 (E. coli)) #5, siRNA vendor or control pool qiagen single siRNA — p65 translocation z-score, replicate mean: -1.55; p65 translocation z-score, replicate 1: -1.55; gene median z-score, per vendor: -0.643
Neil2 (nei like 2 (E. coli)) #6, siRNA vendor or control pool qiagen single siRNA — p65 translocation z-score, replicate mean: 1.09; p65 translocation z-score, replicate 1: 1.09; gene median z-score, per vendor: -0.643
Or10v5 (olfactory receptor family 10 subfamily V member 5) #1, siRNA vendor or control pool ambion single siRNA — p65 translocation z-score, replicate mean: -0.739; p65 translocation z-score, replicate 1: -1.34; p65 translocation z-score, replicate 2: -0.135; gene median z-score, per vendor: -2.22
Or10v5 (olfactory receptor family 10 subfamily V member 5) #2, siRNA vendor or control pool ambion single siRNA — p65 translocation z-score, replicate mean: -1.8; p65 translocation z-score, replicate 1: -0.491; p65 translocation z-score, replicate 2: -3.1; gene median z-score, per vendor: -2.22
Or10v5 (olfactory receptor family 10 subfamily V member 5) #3, siRNA vendor or control pool ambion single siRNA — p65 translocation z-score, replicate mean: -4.69 (active); p65 translocation z-score, replicate 1: -6.01; p65 translocation z-score, replicate 2: -3.37; gene median z-score, per vendor: -2.22
Or10v5 (olfactory receptor family 10 subfamily V member 5) #4, siRNA vendor or control pool qiagen single siRNA — p65 translocation z-score, replicate mean: 3.92 (active); p65 translocation z-score, replicate 1: 1.93; p65 translocation z-score, replicate 2: 5.92; gene median z-score, per vendor: 1.32
Or10v5 (olfactory receptor family 10 subfamily V member 5) #5, siRNA vendor or control pool qiagen single siRNA — p65 translocation z-score, replicate mean: 1.58; p65 translocation z-score, replicate 1: 0.707; p65 translocation z-score, replicate 2: 2.45; gene median z-score, per vendor: 1.32
Or10v5 (olfactory receptor family 10 subfamily V member 5) #6, siRNA vendor or control pool qiagen single siRNA — p65 translocation z-score, replicate mean: -0.365; p65 translocation z-score, replicate 1: -0.285; p65 translocation z-score, replicate 2: -0.445; gene median z-score, per vendor: 1.32

Next part; the last 2 above are carried over.
Or10v5 (olfactory receptor family 10 subfamily V member 5) #5, siRNA vendor or control pool qiagen single siRNA — p65 translocation z-score, replicate mean: 1.58; p65 translocation z-score, replicate 1: 0.707; p65 translocation z-score, replicate 2: 2.45; gene median z-score, per vendor: 1.32
Or10v5 (olfactory receptor family 10 subfamily V member 5) #6, siRNA vendor or control pool qiagen single siRNA — p65 translocation z-score, replicate mean: -0.365; p65 translocation z-score, replicate 1: -0.285; p65 translocation z-score, replicate 2: -0.445; gene median z-score, per vendor: 1.32
Plekho2 (pleckstrin homology domain containing O2) #1, siRNA vendor or control pool ambion single siRNA — p65 translocation z-score, replicate mean: 1.12; p65 translocation z-score, replicate 1: 2.02; p65 translocation z-score, replicate 2: 0.214; gene median z-score, per vendor: 0.634
Plekho2 (pleckstrin homology domain containing O2) #2, siRNA vendor or control pool ambion single siRNA — p65 translocation z-score, replicate mean: 1.16; p65 translocation z-score, replicate 1: 1.05; p65 translocation z-score, replicate 2: 1.27; gene median z-score, per vendor: 0.634
Plekho2 (pleckstrin homology domain containing O2) #3, siRNA vendor or control pool ambion single siRNA — p65 translocation z-score, replicate mean: -2.67 (active); p65 translocation z-score, replicate 1: -2.79; p65 translocation z-score, replicate 2: -2.54; gene median z-score, per vendor: 0.634
Plekho2 (pleckstrin homology domain containing O2) #4, siRNA vendor or control pool qiagen single siRNA — p65 translocation z-score, replicate mean: 1.15; p65 translocation z-score, replicate 1: 1.19; p65 translocation z-score, replicate 2: 1.12; gene median z-score, per vendor: 0.565
Plekho2 (pleckstrin homology domain containing O2) #5, siRNA vendor or control pool qiagen single siRNA — p65 translocation z-score, replicate mean: 0.565; p65 translocation z-score, replicate 1: 0.565; gene median z-score, per vendor: 0.565
Plekho2 (pleckstrin homology domain containing O2) #6, siRNA vendor or control pool qiagen single siRNA — p65 translocation z-score, replicate mean: -1.87; p65 translocation z-score, replicate 1: -2.21; p65 translocation z-score, replicate 2: -1.53; gene median z-score, per vendor: 0.565
Rai2 (retinoic acid induced 2) #1, siRNA vendor or control pool ambion single siRNA — p65 translocation z-score, replicate mean: 1.03; p65 translocation z-score, replicate 1: 1.59; p65 translocation z-score, replicate 2: 0.478; gene median z-score, per vendor: 1.6
Rai2 (retinoic acid induced 2) #2, siRNA vendor or control pool ambion single siRNA — p65 translocation z-score, replicate mean: 2.44 (active); p65 translocation z-score, replicate 1: 3.22; p65 translocation z-score, replicate 2: 1.67; gene median z-score, per vendor: 1.6
Rai2 (retinoic acid induced 2) #3, siRNA vendor or control pool ambion single siRNA — p65 translocation z-score, replicate mean: 0.108; p65 translocation z-score, replicate 1: 1.61; p65 translocation z-score, replicate 2: -1.39; gene median z-score, per vendor: 1.6
Rai2 (retinoic acid induced 2) #4, siRNA vendor or control pool qiagen single siRNA — p65 translocation z-score, replicate mean: 0.0403; p65 translocation z-score, replicate 1: 0.555; p65 translocation z-score, replicate 2: -0.474; gene median z-score, per vendor: -0.000538
Rai2 (retinoic acid induced 2) #5, siRNA vendor or control pool qiagen single siRNA — p65 translocation z-score, replicate mean: 1.25; p65 translocation z-score, replicate 1: 0.473; p65 translocation z-score, replicate 2: 2.04; gene median z-score, per vendor: -0.000538
Rai2 (retinoic acid induced 2) #6, siRNA vendor or control pool qiagen single siRNA — p65 translocation z-score, replicate mean: -1.53; p65 translocation z-score, replicate 1: -1.34; p65 translocation z-score, replicate 2: -1.72; gene median z-score, per vendor: -0.000538
